Reference: PubChem BioAssay AID493014 (National Center for Advancing Translational Sciences (NCATS), 2011)
The other results are listed elsewhere or left out. Further columns of the screen follow, without active or inactive calls. The list favours compounds with an active or inconclusive main result. Words in brackets tell the shape of the fitted curve; partial curves, single points and poor fits give uncertain potencies.

Assay: qHTS Assay to Find Inhibitors of Chronic Active B-Cell Receptor Signaling
Conditions: ABC-DLBCL IkBa-CBG/CBR reporter, luminescence ratio (green luciferase fused to IkBa over red control in TMD8 lymphoma cells), 4 h
Procedure, shortened: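 Doxycycline induced both beetle luciferases in TMD8 lymphoma cells; IKK-driven degradation limits the IkappaBalpha-fused green signal, while red luminescence normalises for cell number and nonspecific effects. Compounds tested up to 46 uM, 4 hrs.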

[1] = measured here: CBR red luminescence, cell number
[2] = measured here: IkBa-CBG green luminescence

Row | SMILES | AC50 [1] | AC50 [2]
1 | CCN(CC)C(=O)CN1C(=O)/C(=C/c2ccccc2)SC1=S | 1.41 µM [rising, full curve] | 
2 | O=C(Nc1ccc(Cl)cn1)c1ccc(-c2cc(Cl)ccc2Cl)o1 | 10 µM [rising, partial curve, poor fit] | 
3 | Cc1ccccc1OCCCCc1c(C)n[nH]c1C | 35.5 µM [rising, single point] | 
4 | CCOc1cccc(-c2c(C(=O)N/N=C/c3sccc3C)nnn2-c2nonc2N)c1 | 35.5 µM [falling, single point] | 
5 | COc1ccc(-c2c(C)nn(-c3ccccc3)c2N)cc1OC | 3.26 µM [rising, single point] | 
6 | C(=N\Nc1nc2ccccc2[nH]1)/c1ccncc1 | 12.6 µM [falling, partial curve, poor fit] | 
7 | N#CCc1ccc(Oc2ncc(C(F)(F)F)cc2Cl)cc1 | 35.5 µM [rising, single point] | 
8 | Cc1c(C(=O)C(=O)N2c3ccc(F)cc3CCC2C)c2ccccc2n1C (configuration not stated) | 20.6 µM [rising, single point] | 
9 | CC(C)C(=O)Nc1nnc(CSCc2ccccc2F)s1 | 4.11 µM [rising, partial curve, poor fit] | 
10 | Cc1ccccc1NC(=O)Cc1nc(COC(=O)c2ccc(O)cc2O)cs1 | 22.4 µM [falling, single point] | 
11 | CN(CC(=O)Nc1ccc(N2CCOCC2)cc1)C(=O)c1cc2c(s1)CCCC2 | 29.1 µM [rising, partial curve, poor fit] | 
12 | C/C(=C\C(=O)c1ccccc1)Nc1cccc(O)c1 | 0.398 µM [rising, full curve, poor fit] | 
13 | Oc1ccc(Cl)cc1/C=N/c1nc2ccccc2[nH]1 | 10 µM [falling, partial curve] | 
14 | CCN1CCN(Cc2ccc(NC(=O)c3ccc(C)c(NC(=O)c4cc(-c5ccc(Br)cc5)n[nH]4)c3)cc2C(F)(F)F)CC1 | 1.58 µM [falling, partial curve, poor fit] | 
15 | CC(=O)N1CCOc2cc(S(=O)(=O)NCc3ccc(F)cc3)c(C)cc21 | 35.5 µM [falling, single point] | 
16 | O=C(Nc1ccc2c(c1)CCCN2C(=O)c1cccs1)c1ccccc1 | 35.5 µM [falling, single point] | 
17 | COC(=O)c1ccc(NC(=S)NCCC2=CCCCC2)cc1 | 0.447 µM [falling, full curve, poor fit] | 
18 | CCOC(=O)C1(CCOc2ccccc2)CCN(CC2CC2)CC1 | 0.112 µM [rising, full curve, poor fit] | 
19 | O=C(c1ccc(Cl)cc1)c1c[nH]c(C(=O)NNc2ccccc2)c1 | 20 µM [falling, single point] | 
20 | COc1ccc(C(C#N)N2N=C(C)CC2c2ccccc2)cc1 (configuration not stated) | 3.55 µM [rising, partial curve] | 

Row | SMILES | AC50 [1] | AC50 [2]
21 | CCOC(=O)c1c(S(=O)(=O)N2CCCC(C(=O)Nc3ccc(C)cn3)C2)c(C)n(C)c1C (configuration not stated) | 2.51 µM [falling, partial curve] | 
22 | CC1CC(=O)C2=C(C1)Nc1ccccc1SC2c1ccc(F)cc1 (configuration not stated) | 20.6 µM [falling, partial curve] | 18.4 µM [rising, partial curve, poor fit]
23 | O=C(O)CCC1COc2ccccc2O1 (configuration not stated) | 3.26 µM [rising, partial curve, poor fit] | 
24 | O=C1c2ccccc2C(=O)N1c1cccc(-c2csc(Nc3ccc4c(c3)OCO4)n2)c1 | 29.1 µM [rising, single point] | 
25 | Cc1ccc(CNc2ccc(Cl)cc2[N+](=O)[O-])cc1 | 3.16 µM [rising, full curve, poor fit] | 
26 | Cc1ccc(C2(C)NC(=O)N(CC(=O)N3CCN(S(=O)(=O)c4ccc(Cl)s4)CC3)C2=O)cc1 (configuration not stated) | 18.4 µM [falling, partial curve] | 
27 | COC(=O)c1ccc(-c2noc(CN(C)CC3CCCCO3)n2)cc1 (configuration not stated) | 35.5 µM [falling, partial curve, poor fit] | 
28 | O=C(N/N=C/C=C/c1ccccc1)c1ccccc1Br | 5.01 µM [falling, partial curve, poor fit] | 
29 | CCOC(=O)C(C)Sc1nc2c([nH]c3ccccc32)c(=O)n1C (configuration not stated) | 0.651 µM [falling, full curve, poor fit] | 
30 | COc1ccc(-c2cc(C3CC3)nc3sc(C#N)c(N)c23)cc1 | 14.6 µM [falling, single point] | 
31 | CCNC(=O)CN(CCc1ccccc1)S(C)(=O)=O | 0.259 µM [rising, full curve, poor fit] | 
32 | CCCCCN(C(=O)CSc1n[nH]c(-c2ccc(C)cc2)n1)c1c(N)n(CCCC)c(=O)[nH]c1=O | 29.1 µM [falling, single point] | 
33 | CCOCC(O)CNC(=O)c1ccc2nc(Cc3ccc(OC)c(OC)c3)oc2c1 (configuration not stated) | 17.8 µM [falling, single point] | 
34 | O=C(NC1CC1)C1=C[C@@H](c2coc3ccccc3c2=O)C[C@@H](OCc2ccc(CO)cc2)O1 | 8.91 µM [rising, partial curve, poor fit] | 
35 | CCOC(=O)C(=O)N(Nc1ccc(C)cc1)c1ccc(C)cc1 | 44.7 µM [rising, partial curve, poor fit] | 
36 | CCn1nc(NC(=O)c2ccco2)c2cc3cc(C)ccc3nc21 | 3.55 µM [falling, partial curve] | 
37 | N#Cc1cc2c(nc1SCc1ccccc1)CCCC2 | 9.2 µM [rising, single point] | 
38 | CCOc1ccccc1N(CC(=O)NC1CCCCC1)S(=O)(=O)c1ccc(C)cc1 | 0.794 µM [falling, full curve, poor fit] | 
39 | O=C(/C=C/c1ccccc1)Nc1scc(-c2ccccc2)c1C(=O)O | 17.8 µM [falling, partial curve, poor fit] | 
40 | C=CCSc1nc(C)cc2c1C(=O)OC2 | 2.24 µM [rising, partial curve, poor fit] | 12.6 µM [falling, partial curve]

In the list so far, these contain two or more sulfur atoms:
Row | SMILES | AC50 [1] | AC50 [2]
1 | CCN(CC)C(=O)CN1C(=O)/C(=C/c2ccccc2)SC1=S | 1.41 µM [rising, full curve] | 
9 | CC(C)C(=O)Nc1nnc(CSCc2ccccc2F)s1 | 4.11 µM [rising, partial curve, poor fit] | 
26 | Cc1ccc(C2(C)NC(=O)N(CC(=O)N3CCN(S(=O)(=O)c4ccc(Cl)s4)CC3)C2=O)cc1 (configuration not stated) | 18.4 µM [falling, partial curve] | 
